Reference: PubChem BioAssay (EPA / NIEHS)
Values joined by “and” are separate entries in the source; they are usually repeats but may differ in a detail not shown here. Identical values can stand only once. The shares of active, inactive and inconclusive entries below differ from those in the screen. Where the call is inconclusive, the potency comes from a doubtful curve fit. More than one record can exist for a structure, and the calls need not agree. Active and inactive are the calls of the source. How the source made its calls: active means hit-call score of the fitted dose curve at least 0.9, where 1 is the maximum; inconclusive means response in the unintended direction; inactive means score below 0.9.

Protein sequences, listed by entry. Tags and fused reporters are not part of them.
UniProt P04637, whole entry, looked up: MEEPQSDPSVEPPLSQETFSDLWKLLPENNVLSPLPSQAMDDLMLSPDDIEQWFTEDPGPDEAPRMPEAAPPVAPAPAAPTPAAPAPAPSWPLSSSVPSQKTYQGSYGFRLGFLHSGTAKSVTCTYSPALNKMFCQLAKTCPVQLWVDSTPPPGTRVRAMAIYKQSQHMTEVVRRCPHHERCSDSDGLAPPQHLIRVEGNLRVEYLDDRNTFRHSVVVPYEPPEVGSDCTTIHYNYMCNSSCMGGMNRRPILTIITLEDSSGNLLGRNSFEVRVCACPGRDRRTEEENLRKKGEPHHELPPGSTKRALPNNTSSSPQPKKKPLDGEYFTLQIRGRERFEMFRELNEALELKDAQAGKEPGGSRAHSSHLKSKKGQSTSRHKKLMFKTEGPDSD

tested on: not listed separately; assay: TOX21_p53_BLA_p3_viability: Viability Assessment in the Tox21 HCT-116 p53 Agonism Beta-lactamase Assay, Phase 3 (AID 2283593);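 further: cells exposed to compound for 16 h before reading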
Method in brief: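 HCT-116 cells (4000/well) rested 5 h at 37C, then got DMSO compounds by pin tool (217-fold dilution) for 16 h at 37C, 5% CO2. After the bla read, CellTiter-Glo was added and luminescence read at 30 min, room temperature.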

| Compound | AC50 | outcome |
| --- | --- | --- |
| Cc1cc(=O)n(-c2ccccc2)n1C | inconclusive: 46.1 µM and inconclusive: 47.1 µM |  |
| CN(C)c1ccc(C(=C2C=CC(=[N+](C)C)C=C2)c2ccccc2)cc1 | active: 1.15 µM | inactive |
| C=C(C)C(=O)OCCOC(=O)C(=C)C | inconclusive: 46.1 µM | inactive |
| Cc1cc(C)nc(NS(=O)(=O)c2ccc(N)cc2)n1 | inconclusive: 46.5 µM and inconclusive: 19.3 nM |  |

molecular target: Cellular tumor antigen p53 (Homo sapiens) (UniProt P04637); assay: TOX21_p53_BLA_p3_ratio: Tox21 HCT-116 p53 Agonism Beta-lactamase Assay, Ratio, Phase 3 (AID 2283596)
Method in brief: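 HCT116 p53-bla cells (4000/well) given compound in DMSO (217-fold dilution) after 5 h, incubated 16 h at 37C. CCF4-AM substrate 2 h at room temperature; 460/530 nm emission ratio, gain fitted against DMSO.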

| Compound | AC50 |
| --- | --- |
| Cc1cc(=O)n(-c2ccccc2)n1C | inconclusive: 46.1 µM and inconclusive: 36.3 µM |
| CC(=O)NS(=O)(=O)c1ccc(N)cc1 | inconclusive: 46.1 µM and inconclusive: 23 µM |
| CN(C)c1ccc(C(=C2C=CC(=[N+](C)C)C=C2)c2ccccc2)cc1 | active: 15.1 µM |
| C=C(C)C(=O)OCCOC(=O)C(=C)C | inconclusive: 46.1 µM |
